Test [1] concerns the target Est2 (telomerase reverse transcriptase domain-containing protein), two-hybrid fusions (S. cerevisiae) (UniProt Q06163). Put plainly: two-hybrid; yeast two-hybrid; Est2 fused to the Gal4 activation domain and DNA binding domain separately.
Test [2] has as its target Est2 tagged with 3xFLAG or 13xMyc (Est2-FLAG and Est2-myc co-expressed) (S. cerevisiae) (UniProt Q06163). The experiment in a line: co-IP; Est2-FLAG and Est2-myc co-expressed in yeast; whole cell lysates; read out by Western blot. For orientation: Immunoblotting shows a protein as a band on a membrane.
For test [3] the target is unchanged. The experiment in a line: co-IP; sequential: anti-FLAG (M2 agarose), elution with 3xFLAG peptide, then anti-Myc immunoprecipitation; TLC1 RNA in the final immunoprecipitate measured by qRT-PCR as a proxy; strains yEHB22,825-827. A general note: Quantitative PCR measures a nucleic acid by following its amplification.

These are yes or no findings as the source states them, for the method shown. For part of these data: Binding seen in cells or lysates may run through a third protein. Tags and fused reporters may be left off the sequences shown.

B1: Est2 (telomerase reverse transcriptase domain-containing protein), two-hybrid fusions (enzyme, UniProt Q06163 1-884)
chain: MKILFEFIQDKLDIDLQTNSTYKENLKCGHFNGLDEILTTCFALPNSRKIALPCLPGDLSHKAVIDHCIIYLLTGELYNNVLTFGYKIARNEDVNNSLFCHSANVNVTLLKGAAWKMFHSLVGTYAFVDLLINYTVIQFNGQFFTQIVGNRCNEPHLPPKWAQRSSSSSATAAQIKQLTEPVTNKQFLHKLNINSSSFFPYSKILPSSSSIKKLTDLREAIFPTNLVKIPQRLKVRINLTLQKLLKRHKRLNYVSILNSICPPLEGTVLDLSHLSRQSPKERVLKFIIVILQKLLPQEMFGSKKNKGKIIKNLNLLLSLPLNGYLPFDSLLKKLRLKDFRWLFISDIWFTKHNFENLNQLAICFISWLFRQLIPKIIQTFFYCTEISSTVTIVYFRHDTWNKLITPFIVEYFKTYLVENNVCRNHNSYTLSNFNHSKMRIIPKKSNNEFRIIAIPCRGADEEEFTIYKENHKNAIQPTQKILEYLRNKRPTSFTKIYSPTQIADRIKEFKQRLLKKFNNVLPELYFMKFDVKSCYDSIPRMECMRILKDALKNENGFFVRSQYFFNTNTGVLKLFNVVNASRVPKPYELYIDNVRTVHLSNQDVINVVEMEIFKTALWVEDKCYIREDGLFQGSSLSAPIVDLVYDDLLEFYSEFKASPSQDTLILKLADDFLIISTDQQQVINIKKLAMGGFQKYNAKANRDKILAVSSQSDDDTVIQFCAMHIFVKELEVWKHSSTMNNFHIRSKSSKGIFRSLIALFNTRISYKTIDTNLNSTNTVLMQIDHVVKNISECYKSAFKDLSINVTQNMQFHSFLQRIIEMTVSGCPITKCDPLIEYEVRFTILNGFLESLSSNTSKFKDNIILLRKEIQHLQAYIYIYIHIVN
B1: the binding result in test [1] is “no binding”.

B2: Est2 tagged with 3xFLAG or 13xMyc (Est2-FLAG and Est2-myc co-expressed) (enzyme, UniProt Q06163 1-884)
chain: B1 chain
As to B2, the binding entry in test [2] and in test [3] was “no binding” throughout.

These data come from article PMC4800423.
